Data published in patent US8735323B2, “Fungicide N-5-membered fused heteroaryl-methylene-N-cycloalkyl-carboxamide derivatives” (Bayer Cropscience AG, priority 2007, dated 2014).
Some results were stated once for a whole list of compounds, not compound by compound. At least one compound was matched to its structure with a doubt left.

Tests used:
Pyrenophora teres = assay: in vivo test on Pyrenophora teres (barley net blotch); details: dose of 500 ppm; barley plants (Express variety), preventive spray 24 hours before contamination; grading 12 days after contamination vs control plants
Sphaerotheca fuliginea = assay: in vivo test on Sphaerotheca fuliginea (cucurbit powdery mildew); details: dose of 500 ppm; gherkin plants (Vert petit de Paris variety), preventive spray 24 hours before contamination; grading 21 days after contamination vs control plants
[1] = test system: Mycosphaerella graminicola; assay: in vivo test on Mycosphaerella graminicola (wheat leaf spot); details: dose of 500 ppm; wheat plants (Scipion variety), preventive spray 24 hours before contamination; grading 21 to 28 days after contamination vs control plants
Alternaria brassicae = assay: in vivo test on Alternaria brassicae (leaf spot of crucifers); details: dose of 500 ppm; radish plants (Pernot variety), preventive spray 24 hours before contamination; grading 6 to 7 days after contamination vs control plants
[2] = test system: Puccinia recondita f. Sp. Tritici; assay: in vivo test on Puccinia recondita f. sp. tritici (wheat brown rust); details: dose of 500 ppm; wheat plants (Scipion variety), preventive spray 24 hours before contamination; grading 10 days after contamination vs control plants

Cc1nn(C)c(F)c1C(=S)N(Cc1csc2ccccc12)C1CC1 [Compound 12]
at least 70%: good or total protection (Pyrenophora teres) | good or total protection (% of efficacy) (Sphaerotheca fuliginea) | good or total protection (% of efficacy) [1]

Cc1nn(C)c(F)c1C(=S)N(Cc1nc2ccccc2s1)C1CC1 [Compound 14]
at least 70%: good or total protection (% of efficacy) [1]

Cc1nn(C)c(F)c1C(=O)N(C1CC1)C(C)c1csc2ccccc12 (stereo not drawn) [Compound 11]
at least 70%: good protection (Alternaria brassicae) | good or total protection (Pyrenophora teres) | good or total protection (% of efficacy) (Sphaerotheca fuliginea) | good or total protection (% of efficacy) [1] | good or total protection [2]

CC(c1csc2ccccc12)N(C(=O)c1cn(C)nc1C(F)F)C1CC1 (stereo not drawn) [Compound 17]
at least 70%: good protection (Alternaria brassicae) | good or total protection (Pyrenophora teres) | good or total protection (% of efficacy) (Sphaerotheca fuliginea) | good or total protection (% of efficacy) [1] | good or total protection [2]

Cc1nn(C)c(F)c1C(=O)N(Cc1nc2ccccc2s1)C1CC1 [Compound 2]
at least 70%: good or total protection (Pyrenophora teres)

Cc1nn(C)c(F)c1C(=O)N(Cc1csc2ccccc12)C1CC1 [Compound 9]
at least 70%: good protection (Alternaria brassicae) | good or total protection (Pyrenophora teres) | good or total protection [2]
